Earlier results, collected in US20260240800A1, “ELAFIBRANOR FOR THE TREATMENT OF PRIMARY BILIARY CHOLANGITIS” (Genfit, priority 2023, published 2026).
At least one structure is not confirmed: it was looked up by name or label, or the drawing left a doubt.

Tested on: patients with PBC
Conditions: over 15 years; cited from earlier work

C[C@H](CCC(=O)O)[C@H]1CC[C@H]2[C@@H]3[C@@H](O)C[C@@H]4C[C@H](O)CC[C@]4(C)[C@H]3CC[C@]12C [UDCA, ursodeoxycholic acid]
treated patients progressing to liver transplant or death: 44%
